# Laboratory results from patent US20160046678A1 (ZYNGENIA, published 2016).
# The chains behind the UniProt entries cited, without tags or fusion partners. Residues count along the entry.
# UniProt P21860, residues 20-643: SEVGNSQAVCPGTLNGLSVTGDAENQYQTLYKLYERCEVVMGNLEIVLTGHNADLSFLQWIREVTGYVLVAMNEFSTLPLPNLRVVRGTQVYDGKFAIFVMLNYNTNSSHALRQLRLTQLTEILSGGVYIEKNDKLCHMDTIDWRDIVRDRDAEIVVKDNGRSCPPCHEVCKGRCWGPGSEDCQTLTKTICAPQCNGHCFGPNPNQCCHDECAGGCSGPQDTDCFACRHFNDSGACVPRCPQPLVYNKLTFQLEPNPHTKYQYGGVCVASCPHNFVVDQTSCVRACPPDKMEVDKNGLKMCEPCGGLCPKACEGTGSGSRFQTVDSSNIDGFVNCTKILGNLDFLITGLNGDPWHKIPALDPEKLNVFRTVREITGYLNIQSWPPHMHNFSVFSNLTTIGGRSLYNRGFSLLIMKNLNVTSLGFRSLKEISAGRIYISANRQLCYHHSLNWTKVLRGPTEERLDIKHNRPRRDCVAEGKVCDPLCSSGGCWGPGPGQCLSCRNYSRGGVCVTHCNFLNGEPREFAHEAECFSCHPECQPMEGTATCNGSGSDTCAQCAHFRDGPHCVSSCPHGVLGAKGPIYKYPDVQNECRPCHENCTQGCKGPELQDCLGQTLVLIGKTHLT
# No constants are given. Whether binding was seen depends on the method and setting. Some entries that bind do so weakly or less than the wild type.
# Molecular target: ErbB3 (UniProt P21860)
# Experiment: MRD screen, Example 48
row,Binder,binding
1,FIEPYCPFINPTWKAECLART [EGC651],binds
2,DKFYLCQIYPSERWHVCVWSS [EGC652],binds
3,EKFKMCQIYPSKNWAVCVETF [EGC653],binds
4,HKFYMCQVYPSEKWHVCVETL [EGC654],binds
5,LSEPYCPFLNPSWKAECIARS [EGC655],binds
6,LSEPYCPFLNPIWKEQCIARS [EGC656],binds
7,LSEPYCPFLNPTWKDQCIARS [EGC657],binds
8,RSEPYCPFVNPIWKAECIVRS [EGC658],binds
9,QFEPYCPFLNPTWKEQCIARI [EGC659],binds
10,PIEPYCPFQNPTWKAQCIART [EGC660],binds
11,YRQPYCPFLNPTWKAQCMART [EGC661],binds
12,DNFYMCQVYPSLKWHICVSIL [EGC663],binds
13,SMFFMCQVYPSEKWHVCVYPL [EGC664],binds
14,SKFFMCQVYPSERWHVCIEPL [EGC665],binds
15,LKFYMCQVYPSGNWNVCTATQ [EGC666],binds
16,NSEPYCPFHNPTWKAACMART [EGC667],binds
17,RSEPYCPFLNPIWKEQCIART [EGC668],binds
18,SREPYCPFLNPTWKEQCIARI [EGC669],binds
19,MREPYCPFLNPSWKEQCIARS [EGC671],binds
20,LREPYCPFLNPVWKNECIART [EGC672],binds
21,ITDTYCPFQNPIWKAECIART [EGC673],binds
22,FNFFMCQVYPSEKWHICVKSL [EGC674],binds
23,KKFYMCQIYPSEKWHVCVERI [EGC675],binds

row,Binder,binding
1,TRYSMCQVYPSLRWHVCVENL [EGC676],binds
2,LGEPYCPFLNPTWKAQCLYMS [EGC678],binds
3,SSEPYCPFLNPIWKNECLARQ [EGC679],binds
4,RSEPYCPFLNPIWKEHCINRS [EGC680],binds
5,HSQPYCPFQNPTWYEQCIART [EGC681],binds
6,SNEPYCPFLNPSWKDACLQRT [EGC682],binds
7,LSDVYCPFVNPTWKAECIARS [EGC683],binds
8,SDFFMCQVYPSQKWHVCVKSL [EGC684],binds
9,PDSWCHTLYWSLLHCARQE [EGC686],binds
10,LPFFMCQVYPSKSWHVCVETS [EGC687],binds
11,LSEPYCPFQNPTWKEQCVARS [EGC688],binds
12,ADSWCHTLFWNLKHCLIQE [EGC689],binds
13,GGDPYCPFLNPTWKAECIART [EGC690],binds
14,VREPYCPFLNPIWKDQCIART [EGC691],binds
15,ASEPYCPFLNPIWKDQCIART [EGC692],binds
16,SSEPYCPFQNPTWKDQCIARN [EGC693],binds
17,ADSWCHTLYWNLLYCANQE [EGC694],binds
18,SWFFMCQIYPSLKWHVCVETL [EGC696],binds
19,STFYMCKVYPSQRWHVCVDTL [EGC698],binds
20,SREPYCPFLNPTWYDECIART [EGC700],binds
21,QSEPYCPFLNPMWKEQCIVRI [EGC701],binds
22,TSEPYCPFDNPTWKARCLAML [EGC702],binds
23,ARQPYCPFLNPTWKNECMARS [EGC703],binds

row,Binder,binding
1,PSEPYCPFLNPIWKAECIART [EGC704],binds
2,IAILTALSLTLSGRTSASSE [EGC705],binds
3,YSAPDCPFVNPIWKNACIARY [EGC706],binds
4,ADSWCHTLFWQLQHCVWQE [EGC707],binds
5,LNFSMCQVYPSYKWHVCVGTL [EGC708],binds
6,MEFFMCQVYPSEKWHVCVAKL [EGC709],binds
7,LRYYICQIYPSEKYHVCVDTL [EGC710],binds
8,VIEPYCPFLNPTWKAECLARS [EGC711],binds
9,STEPYCPFLNPIWKDACIARH [EGC712],binds
10,WRDPYCPFLNPIWKEQCIARY [EGC715],binds
11,RSEPYCPFLNPTWKDQCMART [EGC716],binds
12,VIDPYCPFLNPIWKEQCQVRT [EGC717],binds
13,SKFFMCQVYPSKKWHVCVEAL [EGC718],binds
14,IKFFMCQVYPSELWHVCVQKQ [EGC719],binds
15,TTFFMCQLYPSGNWHVCTETL [EGC720],binds
16,FKFFMCQTYPSEKWHVCVEKL [EGC721],binds
17,SSEPYCPFLNPLWHEQCLARI [EGC722],binds
18,AREPYCPFLNPIWKAECVARY [EGC723],binds
19,PSEPYCPFVNPTWLDECIARS [EGC724],binds
20,ASEPYCPFLNPIWYEQCINRT [EGC725],binds
21,PISPYCPFLNPIWYEECIARS [EGC726],binds
22,VGEPYCPFMNPIWKEQCILRS [EGC727],binds
